Results are given in words; binding and its absence hold for the method and conditions named. In cells and extracts the contact can be indirect. Some binding calls cover weakened binding; strength is not graded here. Sequences can lack the tags named with a protein.
Biological target: T1, AtTPX2-GFP (Arabidopsis thaliana targeting protein for Xklp2 fused to GFP) (Arabidopsis thaliana) (UniProt F4I2H7)
T1 sequence: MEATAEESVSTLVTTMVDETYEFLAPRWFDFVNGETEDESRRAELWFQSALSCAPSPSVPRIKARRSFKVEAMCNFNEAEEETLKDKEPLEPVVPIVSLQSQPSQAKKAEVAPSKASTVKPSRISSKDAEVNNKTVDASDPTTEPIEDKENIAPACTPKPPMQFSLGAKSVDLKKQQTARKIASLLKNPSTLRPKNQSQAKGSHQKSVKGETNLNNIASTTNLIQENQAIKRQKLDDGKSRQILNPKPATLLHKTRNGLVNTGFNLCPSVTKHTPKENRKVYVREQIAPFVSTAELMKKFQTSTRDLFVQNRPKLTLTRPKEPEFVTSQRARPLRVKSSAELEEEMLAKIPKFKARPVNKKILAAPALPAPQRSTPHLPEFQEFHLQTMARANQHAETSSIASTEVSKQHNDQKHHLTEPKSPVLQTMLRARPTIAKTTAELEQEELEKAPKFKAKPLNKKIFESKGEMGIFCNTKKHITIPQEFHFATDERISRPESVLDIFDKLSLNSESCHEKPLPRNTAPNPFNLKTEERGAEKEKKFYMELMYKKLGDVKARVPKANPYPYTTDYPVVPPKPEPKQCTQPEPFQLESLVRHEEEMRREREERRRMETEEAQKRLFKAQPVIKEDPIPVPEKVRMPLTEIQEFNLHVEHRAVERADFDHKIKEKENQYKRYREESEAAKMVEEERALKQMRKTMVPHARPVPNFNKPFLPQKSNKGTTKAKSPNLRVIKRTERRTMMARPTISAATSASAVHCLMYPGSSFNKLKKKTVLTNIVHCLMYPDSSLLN
Assay: co-IP; GFP-Trap or RFP-Trap beads with extract of A. thaliana cell culture co-expressing AtAurora1-RFP and AtTPX2-GFP, 1.5 h at 4 °C; elution with glycine pH 2.5; immunoblot

B1: AtAurora1-RFP (enzyme, UniProt Q9M077 1-294)
chain: MAIPTETQHQEKEASDASAAAAQKRWTLSDFDIGKPLGRGKFGHVYLAREKRSNHVVALKVLFKSQLQQSQVEHQLRREVEIQSHLRHPNILRLYGYFYDQKRVYLILEYAARGELYKDLQKCKYFSERRAATYVASLARALIYCHGKHVIHRDIKPENLLIGAQGELKIADFGWSVHTFNRRRTMCGTLDYLPPEMVESVEHDASVDIWSLGILCYEFLYGVPPFEAMEHSDTYRRIVQVDLKFPPKPIISASAKDLISQMLVKESSQRLPLHKLLEHPWIVQNADPSGIYRV
binding: binds

— PMC3808333
